At least one peptide structure holds a part that was inferred or is arguable (an end, a ring closure or a residue). Ends that are not written are not given here. Peptide text beside a SMILES is read from it.
What was measured:
[1] = tested on: IgA-α1 AT complex; assay: HPLC analysis of dissociation of purified IgA-α1 AT complex in vitro; assay type: biochemical, human; conditions: for HPLC %: Table 1, minimum peptide concentration giving complex: free IgA ratio of 20% (base-line 14%), 90 minutes at 37° C.
Protocol: The ability of the peptides of the invention to dissociate purified IgA-α1 AT complex in vitro was tested as described below. The anti-rheumatic drug D-penicillamine and other synthetic peptides were used as controls. […] The sample was monitored at wavelength 206 nm at a flow rate of 1 ml/minute with phosphate buffer (0.1M) pH 7.1. They represent the ability of the peptides to dissociate the IgA-α1 AT complex in vitro. In these experiments, the base-lines level comprises a complex: free IgA ratio of 14%. The minimum concentration of peptide taken to produce a positive dissociation effect is that which results in a complex: free IgA ratio at 20%. In the results tables, all the peptide values are expressed in μMoles.

[2] = tested on: alternative complement (C3) pathway; assay: Inhibition of C3-activation (IgA-α1 AT complex activation of alternative complement pathway, rabbit RBC lysis); assay type: biochemical, human; conditions: for C': Table 1, minimum concentration of peptide needed to prevent C3 activation
Protocol: Various peptides were tested for their ability to prevent the IgA-α1 AT complex from activating the alternative complement (C3) pathway. […] This method was based on the method described by Riches and Stanworth, Immunology Letters, 1980, 1, 363,366, with modification to miniaturise it thus allowing the assay to be carried out on microtitre plates. The initial observation by […] and Ishizaka (J Immunol. […] The non-immune complex IgA-α1 AT had been shown in the past to be the only known soluble complex to activate the alternative pathway complement and inhibit the lysis of the rabbit erythrocytes. This inhibition required biologically active complex. […] Positive and negative controls, serum only controls and serum plus IgA-α1 AT complex controls were included in the assay. 25 μl of a suitable dilution of IgA-α1 AT complex (see (iii) above) was added to the test wells and the plates were centrifuged at 2000 rpm for 1 minute. The plates were then incubated at 37° C. for 11/2 hours. 50 μl of a suitable serum dilution (see (a) above) was added and the plates centrifuged at 2000 rpm for 10 minute, then incubated at 37° C. for 30 minutes. 50 μl of 1% rabbit RBC was added and after a further 30 minutes of 37° C. incubation, the plates were centrifuged at 2000 rpm for 10 minutes. Supernatants were taken as previously. The mean values of each of the serum(s), serum and complex (c+s) and total haemolysis wells were calculated. The % haemolysis with respect to lysis by serum wells was calculated. The peptide was considered to have titred out when % lysis value was equal to the calculated % lysis value given by the c+s mean. The titre point for the peptide was calculated as the concentration in μM of the peptide that just gave greater lysis than the c+s mean value.

[3] = tested on: mouse macrophage cell line (PU 518); assay: Macrophage inhibition assay (lysosomal enzyme release stimulated by IgA-α1AT complex); assay type: cell-based; conditions: Table 1; concentration needed to prevent 50% release of β-glucoromidase, PU 518 cells

| Compound | HPLC minimum ([1]; Table 6, minimum concentration giving complex: free IgA ratio of 20%, >500 = no dissociation at highest concentration tested) | C' minimum ([2]; Table 6, minimum concentration needed to prevent C3 activation) | HPLC % [1] | C' [2] | IC50 [3] |
| --- | --- | --- | --- | --- | --- |
| CC[C@H](C)[C@H](N)C(=O)N[C@H](C(=O)N[C@@H](CC(C)C)C(=O)N[C@H](C(=O)N[C@@H](CC(=O)O)C(=O)N[C@@H](CC(N)=O)C(=O)N[C@@H](CCCCN)C(=O)N[C@@H](CS)C(=O)N[C@@H](CCCCN)C(=O)N[C@@H](CS)C(=O)N[C@@H](C)C(=O)N[C@@H](CCCNC(=N)N)C(=O)O)C(C)C)C(C)C [Peptide 89, IVLVDNKCKCAR] (H-IVLVDNKCKCAR-OH) | 50 µM | 125 µM | – | – | – |
| HGGGCGGGGK-NH2 [Peptide 172, HGGGCGGGGKnh2] | – | – | 50 µM | 4 µM | – |
| HGGGGCGGGK-NH2 [Peptide 174, HGGGGCGGGKnh2] | – | – | 125 µM | 4 µM | 125 µM |
